Assay results: PubChem BioAssay AID743255 (National Center for Advancing Translational Sciences (NCATS), 2014)
Among all 390,000 compounds or so, about 910 (0.23%) were called active. The inconclusive results got no clear call from the source; some entries with a clear call stand among them for comparison. Calls follow the shape of the dose curve; as a rule, active = well fitted inhibition curve with a large enough effect; inconclusive = small, poorly fitted or top-dose-only effect; inactive = no such curve, though single readings can be large or run the other way. Potencies beside an inconclusive call are fits to weak or partial responses and may not hold up.

Chains of the proteins cited; added tags and fusions are not shown. Lines headed by an entry give the natural chain unless they say otherwise; changes in a name come on top.
UniProt O94782: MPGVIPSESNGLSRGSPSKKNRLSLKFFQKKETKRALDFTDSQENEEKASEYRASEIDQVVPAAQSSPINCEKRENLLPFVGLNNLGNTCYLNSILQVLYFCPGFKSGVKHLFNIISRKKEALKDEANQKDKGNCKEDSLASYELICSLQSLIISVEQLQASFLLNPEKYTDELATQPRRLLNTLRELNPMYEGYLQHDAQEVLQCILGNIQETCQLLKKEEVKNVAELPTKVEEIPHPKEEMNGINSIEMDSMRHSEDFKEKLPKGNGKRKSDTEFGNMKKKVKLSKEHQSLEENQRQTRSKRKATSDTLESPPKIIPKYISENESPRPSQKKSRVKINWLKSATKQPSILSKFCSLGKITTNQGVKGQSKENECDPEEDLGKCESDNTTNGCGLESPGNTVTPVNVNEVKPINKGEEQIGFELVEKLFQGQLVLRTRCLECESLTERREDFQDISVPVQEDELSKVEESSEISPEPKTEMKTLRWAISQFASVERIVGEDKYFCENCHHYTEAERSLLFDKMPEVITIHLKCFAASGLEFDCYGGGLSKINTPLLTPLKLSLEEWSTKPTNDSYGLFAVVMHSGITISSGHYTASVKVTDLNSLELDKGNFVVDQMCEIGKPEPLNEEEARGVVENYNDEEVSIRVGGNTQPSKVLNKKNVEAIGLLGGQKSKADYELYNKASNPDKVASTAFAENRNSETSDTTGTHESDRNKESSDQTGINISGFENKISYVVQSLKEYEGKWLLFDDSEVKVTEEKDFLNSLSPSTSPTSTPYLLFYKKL

molecular target: Ubiquitin carboxyl-terminal hydrolase 1 (Homo sapiens) (UniProt O94782); experiment: Inhibitors of USP1/UAF1: Primary Screen; settings: recombinant USP1/UAF1, Ub-Rhodamine cleavage fluorescence; series mostly up to 57.1 µM; also: nearly all actives have a fitted effect of over 60% in size
In short: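 1 nM enzyme complex + cpd, 15 min RT; start with Ub-Rho 150nM final; kinetic fluorescence ex 480/em 540, 6 reads q60 s. Buffer 50mM HEPES pH 7.8, 0.5mM EDTA, 0.1 mg/ml BSA, 1mM TCEP, 0.01% Tween-20.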
Potency is read from the fitted curve at half-maximal effect.

Potency, inactive:
CCCSc1nnc(-c2cnn(-c3ccccc3)c2-n2cccc2)n1C
Cc1nn(-c2ccccc2)c2c1N(CCCC(=O)NCc1ccc(N(C)C)cc1)C(=O)CS2
COc1ccc(C(c2c(N)[nH]c(=S)[nH]c2=O)c2c(N)[nH]c(=S)[nH]c2=O)cc1
O=C(O)C1=C(C2CCCCC2)C(=O)c2ccccc21
CCCCc1nc2cc(C(=O)N3CCCCC3COC)ccc2o1 (stereo not given)
COc1cc(SC)ccc1C(=O)Nc1ccc(C)cc1C
Cc1ccc(N2CCN(C(=O)c3cc(-c4ccc(F)cc4)[nH]c3C)CC2C)cc1 (stereo not given)
COc1cc(OC)c(OC)cc1/C=C1\CCC(C2CCCC2)C1=O (stereo not given)
Cc1ccc(CSc2nc3c(c(=O)[nH]c(=O)n3C)n2CCC(C)C)cc1
O=C(/C=C/c1ccccc1)Nc1cccc(S(=O)(=O)Nc2ccccc2F)c1
N#Cc1nc(Cc2ccccc2)oc1NCc1ccccc1Cl
O=C(CSc1nc2ccc(S(=O)(=O)N3CCOCC3)cc2[nH]1)N1CCOCC1
Cc1cn([C@H]2C[C@H](O)[C@@H](CNC(=O)[C@H](N)Cc3cn(COCc4ccccc4)cn3)O2)c(=O)[nH]c1=O
COc1ccc(/C=C/C(=O)OCC(=O)c2c(N)n(C)c(=O)n(C)c2=O)cc1
CC(=O)Nc1cc(NC(C)=O)cc(C(=O)OCC(=O)c2ccc3c(c2)NC(=O)CO3)c1
O=C(NNc1ccc(Cl)cc1)c1sccc1Cl
COc1cccc(N=Cc2ccc(O)cc2O)c1
COc1ccc(C(=O)NCC2(N3CCN(C)CC3)CCCCC2)cc1
Cc1ccc(NC(=O)CN2C(=O)N/C(=C/c3ccc(C)o3)C2=O)cc1
COc1cc(CNC(C)(C)CO)ccc1OCC(=O)NC(C)(C)C
Cc1cc(S(=O)(=O)N2CCOCC2)ccc1OCC(=O)NCC1CCCO1 (stereo not given)
CC1CCN(C(=O)CN(C)S(=O)(=O)c2cccc3nsnc23)CC1

Potency, active:
CCN(CC)c1ccc2cc(NC(=O)CCC(=O)O)c(=O)oc2c1 28.2 µM

Potency, inconclusive:
Cc1ccc2occ(CC(=O)N(Cc3ccccc3Cl)C3CCS(=O)(=O)C3)c2c1 (stereo not given) 39.8 µM [inhibitor, single point]
CCn1c(C)nc2cc(C(=O)NNC(=O)[C@@H](NC(=O)c3cc(OC)cc(OC)c3)C(C)C)ccc21 6.31 µM [inhibitor, full curve]
COC(=O)CSc1ncc2c(n1)-c1ccccc1N(Cc1ccccc1C)S2(=O)=O 70.8 µM [inhibitor, partial curve, poor fit]
COc1ccc2sc(-c3ccc(N(C)C)cc3)c(C#CCO)c2c1 28.2 µM [inhibitor, partial curve, poor fit]
CCOc1ccc(NC(=O)COC(=O)Cc2ccc(S(=O)(=O)N3CCOCC3)s2)cc1 0.562 µM [inhibitor, full curve, poor fit]
O=C1NC(=O)/C(=C\c2ccccc2OCc2ccccc2)S1 63.1 µM [inhibitor, partial curve, poor fit]
CCc1ccccc1NC(=O)CN(C)S(=O)(=O)c1ccc2c(c1)c(=O)n(C)c(=O)n2C 44.7 µM [inhibitor, partial curve, poor fit]
Cc1ccc2c(c1)c1c3n2CCN(C(=O)Cn2c(-c4ccccc4)noc2=O)C3CCC1 (stereo not given) 50.1 µM [inhibitor, partial curve, poor fit]
COc1cc(C(=O)Nc2sc3c(c2C#N)CCN(C(C)=O)C3)cc(OC)c1OC 35.5 µM [inhibitor, partial curve]
Cc1ccccc1-n1c(=O)cc(N2CCN(Cc3ccccc3)CC2)[nH]c1=O 39.8 µM [inhibitor, partial curve]
COc1ccc(CC(=O)Nc2sc3c(c2C(=O)Nc2cccc(Cl)c2)CCCCC3)cc1 50.1 µM [inhibitor, partial curve, poor fit]
CCOC(=O)c1c(-c2cccc([N+](=O)[O-])c2)csc1NC(=O)C1CC1 15.8 µM [inhibitor, partial curve]
COc1ccc(Cn2c(SCC(=O)NCc3ccc(Cl)cc3)nc3ccsc3c2=O)cc1 100 µM [inhibitor, partial curve]
Cc1ccc(C)c(S(=O)(=O)c2nnn3c2nc(Nc2ccc(C)c(C)c2)c2sccc23)c1 89.1 µM [inhibitor, partial curve, poor fit]
CC(C)=C[C@@H]1C[C@H](C)[C@H]2CC[C@H](C)c3c(O)c(O)c(C)c1c32 22.4 µM [inhibitor, partial curve]
Cc1ccc(-n2ncc3c(NCCCn4ccnc4)ncnc32)cc1Cl 3.55 µM [inhibitor, full curve, poor fit]
CCOC(=O)c1cnc2c(-c3ccccc3OC)c(C)nn2c1C 39.8 µM [inhibitor, partial curve, poor fit]
COc1ccc(CC(=O)NCC(c2ccc(N(C)C)cc2)N2CCOCC2)cc1 (stereo not given) 50.1 µM [inhibitor, partial curve, poor fit]
OCCCc1nc2n(n1)C(c1ccccc1Cl)C=C(c1cccs1)N2 (stereo not given) 22.4 µM [inhibitor, single point]
c1ccc(-c2cn3nc(-c4ccccc4)c(-c4ccccc4)nc3n2)cc1 31.6 µM [inhibitor, partial curve, poor fit]
CCN1C(=O)[C@H]2[C@@H](c3ccc(-c4ccc(F)cc4)c(OC)c3)N3CCCC[C@@]3(C(=O)OC)[C@H]2C1=O 50.1 µM [inhibitor, partial curve, poor fit]
COc1ccc(N2C(=O)CC(Sc3n[nH]c(-c4ccccc4)n3)C2=O)cc1 (stereo not given) 44.7 µM [inhibitor, partial curve, poor fit]
O=C1N=c2ccccc2=C1c1sc(=S)n(Cc2ccccc2Cl)c1O 7.08 µM [inhibitor, partial curve, poor fit]
CC(=O)N1CCc2cc(S(=O)(=O)NCCC(=O)NCCc3ccc(Cl)cc3)ccc21 44.7 µM [inhibitor, partial curve]
CC(=O)N(Cc1ccc(F)cc1)C1=C(NCCc2ccccc2)C(=O)c2ccccc2C1=O 25.1 µM [inhibitor, partial curve]
CCCN1C(=O)C(Cc2nc3ccccc3c(=O)n2-c2ccccc2)c2cc(C)ccc21 (stereo not given) 5.01 µM [inhibitor, full curve, poor fit]
O=C1c2cc(F)ccc2-n2c1nc1ccccc1c2=O 1.58 µM [inhibitor, full curve, poor fit]
Cc1cccc(-n2ncc3c(N(C)Cc4ccccc4)ncnc32)c1 7.08 µM [inhibitor, single point]
COc1ccc(OCc2cc(C(=O)N3CCCN(C(C)=O)CC3)no2)c(Cl)c1 35.5 µM [inhibitor, partial curve, poor fit]
Cc1ccccc1CN1C(=O)c2ccccc2Sc2ccc(C(=O)NCc3cccs3)cc21 4.47 µM [inhibitor, single point]
COc1ccc2nc(NC(=O)c3cc(=O)c4ccccc4o3)sc2c1 10 µM [inhibitor, partial curve, poor fit]
O=C(Cn1c(=O)nc(-c2ccccc2)c2cc(Cl)ccc21)NCCc1ccc(Cl)cc1 178 µM [inhibitor, partial curve, poor fit]
CC1(C)CC(NC(=O)c2c(N)no[n+]2[O-])CC(C)(C)N1 1.12 µM [inhibitor, full curve, poor fit]
Cc1ccc(OCC(=O)N2N=C(C(F)(F)F)CC2(O)C(C)(C)C)cc1C (stereo not given) 70.8 µM [inhibitor, partial curve, poor fit]
COc1ccc(C)cc1NS(=O)(=O)c1ccc2c(c1)n(C)c(=O)n2C 0.251 µM [inhibitor, full curve]
COC(=O)c1ccc(Cl)cc1NC(=O)N(Cc1ccc(C)o1)C1CCN(C(C)=O)CC1 3.98 µM [inhibitor, full curve]
COc1ccc2c(c1)CC/C(=C\C=C\c1ccccc1OC)C2=O 56.2 µM [inhibitor, partial curve, poor fit]
COc1ccc(-n2cnc(=S)[nH]c2=S)cc1 35.5 µM [inhibitor, partial curve, poor fit]
Cc1ccc(NC(=O)CN2C(=O)S/C(=C\c3cccn3-c3cccc(C(=O)O)c3)C2=O)c(C)c1 35.5 µM [inhibitor, single point]
CC(C)C(=O)N1CCC2(CC1)Oc1ccc(F)cc1C(=O)C21CC(c2ccc(Cl)cc2)=NO1 (stereo not given) 0.141 µM [inhibitor, full curve, poor fit]
CCCc1c(C(=O)NNc2ccc(C)cc2)cnn1-c1ccccc1 5.62 µM [inhibitor, partial curve]
COc1ccc(OC)c(S(=O)(=O)Nc2ccc3c(c2)n(C)c(=O)n3C)c1 0.251 µM [inhibitor, full curve, poor fit]

Reprinted from the entries so far, 14 compounds:
Potency, inconclusive:
Cc1ccccc1-n1c(=O)cc(N2CCN(Cc3ccccc3)CC2)[nH]c1=O 39.8 µM [inhibitor, partial curve]
COc1ccc(CC(=O)Nc2sc3c(c2C(=O)Nc2cccc(Cl)c2)CCCCC3)cc1 50.1 µM [inhibitor, partial curve, poor fit]
CCOC(=O)c1c(-c2cccc([N+](=O)[O-])c2)csc1NC(=O)C1CC1 15.8 µM [inhibitor, partial curve]
COc1ccc(Cn2c(SCC(=O)NCc3ccc(Cl)cc3)nc3ccsc3c2=O)cc1 100 µM [inhibitor, partial curve]
Cc1ccc(C)c(S(=O)(=O)c2nnn3c2nc(Nc2ccc(C)c(C)c2)c2sccc23)c1 89.1 µM [inhibitor, partial curve, poor fit]
CC(C)=C[C@@H]1C[C@H](C)[C@H]2CC[C@H](C)c3c(O)c(O)c(C)c1c32 22.4 µM [inhibitor, partial curve]
Cc1ccc(-n2ncc3c(NCCCn4ccnc4)ncnc32)cc1Cl 3.55 µM [inhibitor, full curve, poor fit]
CCOC(=O)c1cnc2c(-c3ccccc3OC)c(C)nn2c1C 39.8 µM [inhibitor, partial curve, poor fit]
COc1ccc(CC(=O)NCC(c2ccc(N(C)C)cc2)N2CCOCC2)cc1 (stereo not given) 50.1 µM [inhibitor, partial curve, poor fit]
OCCCc1nc2n(n1)C(c1ccccc1Cl)C=C(c1cccs1)N2 (stereo not given) 22.4 µM [inhibitor, single point]
c1ccc(-c2cn3nc(-c4ccccc4)c(-c4ccccc4)nc3n2)cc1 31.6 µM [inhibitor, partial curve, poor fit]
CCN1C(=O)[C@H]2[C@@H](c3ccc(-c4ccc(F)cc4)c(OC)c3)N3CCCC[C@@]3(C(=O)OC)[C@H]2C1=O 50.1 µM [inhibitor, partial curve, poor fit]
COc1ccc(N2C(=O)CC(Sc3n[nH]c(-c4ccccc4)n3)C2=O)cc1 (stereo not given) 44.7 µM [inhibitor, partial curve, poor fit]
O=C1N=c2ccccc2=C1c1sc(=S)n(Cc2ccccc2Cl)c1O 7.08 µM [inhibitor, partial curve, poor fit]
